Experimental data taken from PMC2045677, “Thyroid hormone receptor orthologues from invertebrate species with emphasis on Schistosoma mansoni”.
The exact form of at least one protein or probe is not confirmed. Negatives hold for the conditions tested. At least one verdict rests on a figure or table, not on a statement of the authors.

Key:
SmTRβ + SmRXR1 = test: EMSA; conditions: no heterodimer shift; EMSA on ice 40 min, 15 µl with 3 µl 5x buffer (5x: 20% glycerol, 5 mM MgCl2, 2.5 mM EDTA, 2.5 mM DTT, 250 mM NaCl, 50 mM Tris-HCl pH 7.5, 0.25 mg/ml poly(dI-dC)); protein translated in vitro; label: 32P
SmTRα + SmRXR1 = test: EMSA; conditions: no heterodimer shift; EMSA on ice 40 min, 15 µl with 3 µl 5x buffer (5x: 20% glycerol, 5 mM MgCl2, 2.5 mM EDTA, 2.5 mM DTT, 250 mM NaCl, 50 mM Tris-HCl pH 7.5, 0.25 mg/ml poly(dI-dC)); protein translated in vitro; label: 32P

Sequence	binding result (SmTRβ + SmRXR1)	binding result (SmTRα + SmRXR1)
CCGTAAGGTCAAGGTCACTCG (double strand) [DR0]	no binding	no binding
CCGTAAGGTCACAAGGTCACTCG (double strand) [DR2]	no binding	no binding
CCGTAAGGTCACAGAGGTCACTCG (double strand) [DR3]	no binding	no binding
CCGTAAGGTCACAGGAGGTCACTCG (double strand) [DR4]	no binding	no binding
CCGTAAGGTCACAGGTCACTCG (double strand) [DR1]	no binding	no binding
CCGTAAGGTCACCAGGAGGTCACTCG (double strand) [DR5]	no binding	no binding
CGCAAGGTCATGACCTCG (double strand) [Pal0]	no binding	no binding
GTACCGTAAGGTCACTCGCGT (double strand) [half-site]	no binding	no binding
